Source: article PMC8883493
Results are given in words; binding and its absence hold for the method and conditions named. Binding seen in cells or lysates may run through a third protein. Some binding calls cover weakened binding; strength is not graded here.

Sequences of proteins named here, by UniProt entry; tags and fusion partners are left off.
UniProt Q15438: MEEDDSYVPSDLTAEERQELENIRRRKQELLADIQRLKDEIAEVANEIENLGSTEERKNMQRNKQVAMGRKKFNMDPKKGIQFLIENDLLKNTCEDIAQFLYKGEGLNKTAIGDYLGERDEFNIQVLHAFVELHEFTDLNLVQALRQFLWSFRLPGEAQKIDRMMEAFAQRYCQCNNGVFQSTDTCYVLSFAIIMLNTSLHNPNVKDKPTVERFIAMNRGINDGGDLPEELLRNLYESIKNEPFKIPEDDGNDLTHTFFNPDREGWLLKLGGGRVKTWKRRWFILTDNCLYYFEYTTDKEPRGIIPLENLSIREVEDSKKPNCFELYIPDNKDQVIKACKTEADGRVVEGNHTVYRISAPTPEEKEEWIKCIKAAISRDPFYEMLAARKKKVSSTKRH

Target: cytohesin-1 (human (endogenous in primary T cells)) (UniProt Q15438)
Test: co-IP; 0.5 mg primary human T cell extract with 0.5 µg anti-cytohesin (goat IgG as control), 2.5 h, 4°C; protein A/G magnetic beads; washed x3 with 50 mM Tris-HCl pH 7.5, 0.2 M NaCl, 1% Triton X-100; blotted for CYTIP and SNX27; cells with or without IL-7 overnight and with or without CD3 cross-linking for 8 min

B1: cytohesin interacting protein (CYTIP) (protein, UniProt O60759 1-359)
chain: MSLQRLLQHSSNGNLADFCAGPAYSSYSTLTGSLTMDDNRRIQMLADTVATLPRGRKQLALTRSSSLSDFSWSQRKLVTVEKQDNETFGFEIQSYRPQNQNACSSEMFTLICKIQEDSPAHCAGLQAGDVLANINGVSTEGFTYKQVVDLIRSSGNLLTIETLNGTMILKRTELEAKLQVLKQTLKQKWVEYRSLQLQEHRLLHGDAANCPSLENMDLDELSLFGPLPGPGPALVDRNRLSSESSCKSWLSSMTMDSEDGYQTCVSEDSSRGAFSRQTSTDDECFIPKEGDDFLRRSSSRRNRSISNTSSGSMSPLWEGNLSSMFGTLPRKSRKGSVRKQLLKFIPGLHRAVEEEESRF
modifications: phosphothreonine at 280 (pThr280), dephosphorylated upon IL-7 stimulation
  binding: binds
